Values quoted from earlier work in patent publication US20200306252A1, “COMPOSITION FOR PREVENTING AND/OR TREATING DEMENTIA” (priority 2019, published 2020).
At least one structure is not confirmed: it was looked up by name or label, or the drawing left a doubt.

Settings: in vivo

SMILES: CC#Cc1cncc(-c2ccc3c(c2)[C@@]2(N=C(C)C(N)=N2)[C@]2(CC[C@H](OC)CC2)C3)c1 [lanabecestat]
- clinical trial Phase III outcome: failure to meet primary endpoints
